Screen size: about 2,300 compounds; about 1,200 (52%) were called active. The set was probably picked from earlier hits. Inconclusive results, whose numbers are uncertain, are shown with a selection of clear calls. Calls follow the shape of the dose curve; as a rule, active = well fitted inhibition curve with a large enough effect; inconclusive = small, poorly fitted or top-dose-only effect, or effect the other way; inactive = no such curve, though single readings can be large or run the other way. A potency beside an inconclusive call is a rough fit, not a confirmed value.
Test: Confirmation screen for delayed death inhibitors of the malarial parasite plastid, 48 hour incubation; also: nearly all actives have a fitted effect of over 65% in size
Conditions: P. falciparum-infected erythrocytes, luciferase growth; series mostly up to 28.7 µM; activity change, negative = inhibition: at the top concentration
Summary of the method: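 Erythrocytes infected with luciferase-expressing P. falciparum (2% hematocrit, 0.1% parasitemia) incubated with compounds 48 hours at 37 C, 5% CO2, in RPMI/Albumax. Growth inhibition scored as reduced luminescence after detection reagent.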
% is scaled to controls: 0 for no effect and ±100 for the full control effect; potency is read from the fitted curve at half-maximal effect.

Structure (SMILES) | Potency | activity change, negative = inhibition
CCOC(=O)C[n+]1ccc2c([nH]c3ccccc32)c1C | inconclusive: 15.8 µM [inhibitor, single point] | –
O=C(Nc1cccc([N+](=O)[O-])c1)c1ccc2nsnc2c1 | – | inactive: -9.9%
Cc1ccc(-n2nnnc2Sc2nc([N+](=O)[O-])nn2C)cc1C | active: 3.55 µM | –
Cc1ccc2c(c1)N(CCC(=O)NCc1ccco1)C(=O)CO2 | – | inactive: -8.96%
Fc1ccccc1N1CCN(c2ncnc3[nH]ncc23)CC1 | inconclusive: 0.0224 µM [activator, full curve, poor fit] | –
CCOC(=O)c1c(C)sc2c1N(C(=O)CCl)c1cc(Cl)ccc1S2 | active: 3.98 µM | –
Cc1cccc(C)c1OCc1cc(C(=O)N2CCN(c3ccccc3)CC2C)no1 (configuration not stated) | inconclusive: 0.0708 µM [inhibitor, full curve, poor fit] | –
Cc1onc(-c2ccccc2Cl)c1C(=O)N1CC(C)CC(C)C1 (configuration not stated) | – | inactive: -22.2%
Cc1c(Cl)cccc1NC(CC(=O)c1ccccc1)C(=O)O (configuration not stated) | – | inactive: -3.76%
CSc1cccc(CN2CCC(Oc3cccc(C(=O)N4CCCC4)c3)CC2)c1 | inconclusive: 6.31 µM [inhibitor, partial curve] | –
S=c1[nH]nc(-c2ccccc2)n1/N=C/c1ccc(-c2ccccc2Cl)o1 | inconclusive: 12.6 µM [inhibitor, partial curve, poor fit] | –
COc1cccc(CNc2ccc3c(c2)ncn3C(C)C)c1OC | inconclusive: 1.78 µM [activator, partial curve] | –
O=C(NC(=C(Cl)Cl)S(=O)(=O)c1ccc(Cl)cc1)c1ccccc1 | – | inactive: -9.33%
COc1ccc(N2CC(O)=C(c3nc4ccccc4s3)C2=N)cc1 | inconclusive: 10 µM [inhibitor, partial curve] | –
Cc1cc(C)c(NC(=O)c2cccc3c2C(=O)N(C2CCCCC2)C3)c(C)c1 | active: 10 µM | –
CC(CC(=O)Nc1nnc(CC(C)(C)C)s1)c1ccccc1 (configuration not stated) | inconclusive: 11.2 µM [inhibitor, single point] | –
COc1cccc(/C=C/C(=O)c2ccc3c(c2)OCCO3)c1OC | inconclusive: 6.31 µM [activator, partial curve] | –
CCN(CC)[C@@H](C)CN1c2ccccc2Sc2ccccc21 | inconclusive: 10 µM [inhibitor, single point] | –
Cc1ccc(-c2nc(CSc3nc4ccccc4c(=O)n3CCO)cs2)cc1 | – | inactive: -13.4%
O=C(NC1CCC1)C1CCC(=O)N(Cc2ccccc2F)C1 (configuration not stated) | – | inactive: -11.4%
Cc1ccc(/C=C/C(=O)NC(C)c2ccccc2)cc1 (configuration not stated) | inconclusive: 14.1 µM [inhibitor, single point] | –
COc1ccc(NC(=O)c2cc([N+](=O)[O-])ccc2N2CCN(C)CC2)cc1 | – | inactive: -7.89%
O=C(Nc1ccccc1SCC1CSc2nc3ccccc3c(=O)n21)c1ccccc1 (configuration not stated) | inconclusive: 14.1 µM [inhibitor, partial curve] | –
CN1CCN(C(=O)c2cc(COc3c(F)cccc3F)on2)CC1c1ccccc1 (configuration not stated) | – | inactive: -15.8%

Structure (SMILES) | Potency | activity change, negative = inhibition
Cc1nn(CCCC(=O)NCc2ccco2)c(=O)c2nn(-c3ccccc3)c(C)c12 | inconclusive: 11.2 µM [inhibitor, partial curve] | –
COc1cc2c(cc1OC)CN(C(=O)COc1ccccc1C#N)CC2 | inconclusive: 15.8 µM [inhibitor, partial curve, poor fit] | –
CCOc1ccc(C(C)=O)cc1COc1ccc(-c2nnco2)cc1 | inconclusive: 15.8 µM [inhibitor, single point] | –
CCOc1ccccc1NC(=O)C(CC)Sc1nc2ccsc2c(=O)n1CCC(=O)O (configuration not stated) | active: 12.6 µM | –
COCCN(Cc1nc2ccccc2c(=O)[nH]1)C(=O)COc1ccccc1-c1ccccc1 | inconclusive: 14.1 µM [inhibitor, single point] | –
CN1/C(=C\C(=O)CSc2cccc[n+]2[O-])C(C)(C)c2ccccc21 | inconclusive: 11.2 µM [inhibitor, partial curve, poor fit] | –
O=C(CCl)Nc1ccccc1C(=O)Nc1ccc2c(c1)OCO2 | inconclusive: 10 µM [inhibitor, partial curve, poor fit] | –
COc1cc(/C=C/C(=O)Nc2cccnc2)cc(OC)c1OC | active: 14.1 µM | –
Cn1c(C(=O)NCc2ccccc2)cc2oc3ccccc3c21 | inconclusive: 1.41 µM [activator, partial curve] | –
CCOC(=O)C[n+]1c(C)ccc2c1CCC2 | inconclusive: 12.6 µM [inhibitor, partial curve, poor fit] | –
Fc1ccc(C2CC(c3ccco3)=NN2c2ccccc2)cc1 (configuration not stated) | – | inactive: -23.2%
CC(=O)Nc1ccc(S(=O)(=O)N2CCn3cccc3C2C)cc1 (configuration not stated) | inconclusive: 7.08 µM [inhibitor, partial curve, poor fit] | –
CN(Cc1nc2ccccc2c(=O)[nH]1)C(=O)c1cccc(S(=O)(=O)N2CCc3ccccc32)c1 | inconclusive: 5.62 µM [inhibitor, partial curve, poor fit] | –
Cc1oc(-c2ccccc2Cl)nc1CSCC(=O)N1CCCC1 | inconclusive: 15.8 µM [inhibitor, single point] | –
C=CCNC(=O)c1onc(CSc2ccc(C(C)C)cc2)c1C(=O)O | inconclusive: 8.91 µM [inhibitor, partial curve, poor fit] | –
O=C(Nc1cccc(S(=O)(=O)NCc2ccco2)c1)c1cc(-c2ccc(F)cc2)nc2ccccc12 | – | inactive: -0.526%
COC(=O)c1c(NC(=O)c2ccco2)sc2c1CC(C)(C)NC2(C)C | inconclusive: 15.8 µM [inhibitor, single point] | –
CCOC(=O)c1ccc(N=c2scc(C)n2CC)cc1 | inconclusive: 3.55 µM [activator, partial curve] | –
CCC(=O)Nc1cccc(C2=NOC3(C2)C[C@@H](C(N)=O)N(C(=O)c2cc([N+](=O)[O-])cc([N+](=O)[O-])c2C)C3)c1 (some centres not stated) | inconclusive: 15.8 µM [inhibitor, single point] | –
CSCCC(NC(=O)c1ccccc1Cl)C(=O)N1CCN(C(c2ccccc2)c2ccccc2)CC1 (configuration not stated) | active: 3.98 µM | –
COc1ccc(C2c3[nH]c4ccccc4c3CCN2Cc2ccoc2)c(F)c1 (configuration not stated) | inconclusive: 14.1 µM [inhibitor, single point] | –
Cc1cc(C)c(S(=O)(=O)N2CCCCC2CCNC(=O)C(=O)NC2CC2)c(C)c1 (configuration not stated) | inconclusive: 14.1 µM [inhibitor, partial curve, poor fit] | –
Cc1ccc(C(=O)NCC(=O)NCCCc2ccccc2)s1 | – | inactive: -8.96%
Cc1[nH]c(=O)[nH]c(=O)c1S(=O)(=O)N1CCCC(C(=O)N2CCN(c3cccc(C(F)(F)F)c3)CC2)C1 (configuration not stated) | active: 12.6 µM | –

Among those listed so far, these contain two or more sulfur atoms:
Structure (SMILES) | Potency | activity change, negative = inhibition
CCOC(=O)c1c(C)sc2c1N(C(=O)CCl)c1cc(Cl)ccc1S2 | active: 3.98 µM | –
Cc1ccc(-c2nc(CSc3nc4ccccc4c(=O)n3CCO)cs2)cc1 | – | inactive: -13.4%
O=C(Nc1ccccc1SCC1CSc2nc3ccccc3c(=O)n21)c1ccccc1 (configuration not stated) | inconclusive: 14.1 µM [inhibitor, partial curve] | –
CCOc1ccccc1NC(=O)C(CC)Sc1nc2ccsc2c(=O)n1CCC(=O)O (configuration not stated) | active: 12.6 µM | –

More structures:

Structure (SMILES) | Potency | activity change, negative = inhibition
Cc1ccc(NC(=O)c2ccc(Nc3c([N+](=O)[O-])cc([N+](=O)[O-])cc3[N+](=O)[O-])cc2)cc1 | active: 3.16 µM | –
Cc1cc(NC(=O)CSCC(=O)Nc2ccccc2Oc2ccccc2)no1 | active: 14.1 µM | –
COc1ccc(S(=O)(=O)N2CCc3ccccc32)cc1C(=O)Nc1cccnc1 | active: 12.6 µM | –
O=C(/C=C/c1cccs1)Nc1sc2c(c1C(=O)O)CCCC2 | – | inactive: -4.46%
COc1cccc(NC(=O)c2ccc(CN3CCN(c4ccccc4)CC3)cc2)c1 | active: 15.8 µM | –
COc1ccc(-n2nc(C#N)c(Cl)cc2=O)cc1 | – | inactive: -9.59%
CCc1ccc(/C=C2\SC(=S)N(CCCC(=O)Nc3ccccc3C(=O)O)C2=O)cc1 | inconclusive: 14.1 µM [inhibitor, single point] | –
O=C(NCc1ccc2[nH]c3c(c2c1)CCCC3)c1ccc(S(=O)(=O)N2CCCC2)cc1 | active: 15.8 µM | –
O=C(NCc1ccco1)c1ccc(S(=O)(=O)N2CCCc3ccccc32)cc1 | inconclusive: 11.2 µM [inhibitor, partial curve, poor fit] | –
CSc1nc(C)c(C(=O)C[n+]2ccc(C)cc2)cc1C#N | inconclusive: 15.8 µM [inhibitor, single point] | –
Cc1ccc2cc(C)c(SCC(=O)NCc3ccco3)nc2c1 | – | inactive: -22.8%
Cc1nn(-c2nc3ccccc3s2)c(C)c1Oc1ccccc1O | inconclusive: 3.16 µM [activator, partial curve] | –
Cc1cc([N+](=O)[O-])ccc1NC(=O)CSc1nncn1-c1cccnc1 | – | inactive: -17.8%
CC(=O)N1CCCN(C(=O)c2cc(COc3c(F)cccc3F)on2)CC1 | – | inactive: -13.9%
CCN(C(=O)CN1C(=O)/C(=C/c2ccc(F)cc2)SC1=S)C1CCS(=O)(=O)C1 (configuration not stated) | inconclusive: 10 µM [inhibitor, partial curve] | –
CC1=Nc2cc(C(=O)N3CCCC3)ccc2Sc2c(C)ccc(C)c21 | inconclusive: 5.62 µM [inhibitor, partial curve] | –
Cc1noc(C)c1C(=O)Nc1nc(-c2ccc(F)cc2)cs1 | – | inactive: 12.2%
CC(C)(C)c1ccc(C(O)CCCN2CCC(C(O)(c3ccccc3)c3ccccc3)CC2)cc1 (configuration not stated) | active: 12.6 µM | –
O=C(CSc1nnc(NC(=O)c2ccccc2[N+](=O)[O-])s1)NCC1CCCO1 (configuration not stated) | – | inactive: 5.45%
CCOc1ccccc1CN1C(=O)NC(C)(c2ccccc2)C1=O (configuration not stated) | – | inactive: -30.8%
CCC(=O)c1ccc(OCC(=O)NCC2(N3CCCCC3)CCCCC2)cc1 | inconclusive: 5.62 µM [inhibitor, partial curve, poor fit] | –
Cc1ccc(S(=O)(=O)Nc2ccc(C(=O)Nc3ccncc3)cc2)cc1 | inconclusive: 14.1 µM [inhibitor, single point] | –
CC(c1ccco1)N(C(=O)c1cc(Cl)cc(Cl)c1)c1ccccn1 (configuration not stated) | active: 11.2 µM | –
O=C(Nc1ccccc1N1CCOCC1)c1cccc(S(=O)(=O)N2CCOCC2)c1 | inconclusive: 14.1 µM [inhibitor, partial curve, poor fit] | –
